{"sequences": {"note": "By UniProt entry, the sequences of proteins in these tests, tags left out.", "UniProt P15056, whole entry": "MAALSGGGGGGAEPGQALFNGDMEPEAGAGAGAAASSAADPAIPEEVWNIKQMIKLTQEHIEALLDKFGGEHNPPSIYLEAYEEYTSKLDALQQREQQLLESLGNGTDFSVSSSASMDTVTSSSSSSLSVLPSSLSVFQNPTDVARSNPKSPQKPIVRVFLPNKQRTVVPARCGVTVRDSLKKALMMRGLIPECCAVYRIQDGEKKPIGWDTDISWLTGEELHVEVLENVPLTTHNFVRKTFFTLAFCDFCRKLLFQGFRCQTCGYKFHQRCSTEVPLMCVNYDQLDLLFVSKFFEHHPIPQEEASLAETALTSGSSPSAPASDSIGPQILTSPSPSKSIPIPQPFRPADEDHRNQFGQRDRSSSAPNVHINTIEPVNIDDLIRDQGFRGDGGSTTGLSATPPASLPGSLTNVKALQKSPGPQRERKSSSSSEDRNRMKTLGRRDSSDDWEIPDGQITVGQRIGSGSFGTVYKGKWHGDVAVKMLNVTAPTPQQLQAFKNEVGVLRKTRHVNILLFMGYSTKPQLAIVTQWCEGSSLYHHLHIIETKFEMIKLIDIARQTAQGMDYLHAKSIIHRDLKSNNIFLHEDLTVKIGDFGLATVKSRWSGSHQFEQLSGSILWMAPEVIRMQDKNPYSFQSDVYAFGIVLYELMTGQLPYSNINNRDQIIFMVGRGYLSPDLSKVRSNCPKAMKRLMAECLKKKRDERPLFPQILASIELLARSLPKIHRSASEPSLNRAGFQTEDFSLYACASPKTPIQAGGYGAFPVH"}, "source": "patent US12139488B2", "about": "“Pyrido[3,2-d]pyrimidine compounds uses thereof for treating a proliferative disease” (Universite de Montreal, priority 2021, dated 2024)", "molecular_target": "BRAF (Homo sapiens (Human), UniProt P15056)", "experiment": "BRAF kinase activity assay (ADP-Glo)", "format": "biochemical", "design": "key to the marks not given beside the values", "description": "Compound preparation: solid samples of each substances in 1 dram vials were suspended in DMSO (Fisher Scientific) at a stock concentration of 20 mM. Stocks were kept at −20° C. and protected from light.\nIn vitro enzymatic reactions were used for evaluating compounds intrinsic activity against BRAF, CRAF and ARAF. […] Separate reactions were performed with the MEK1 substrate and ATP as a blank control.\nFor compound treatment, 5 μL/well of test substance solution are placed in a 384-well proxyplate (Perkin Elmer) and mixed with 2× concentrated kinase reactions. The dilution series is selected so that nine concentrations cover a range from 100 nM to 0.01 nM. […] The final concentration of DMSO in the assay is set at 0.05%.\nBRAF and CRAF kinase reactions were carried out for a total of 2 hours at 30° C. and then stopped by ½ dilution in ADP-Glo Reagent (cat #V9102; Promega; part V912C). Reactions were then incubated for 1h at room temperature before addition of one volume of Kinase Detection Reagent (cat #V9102; Promega; part V917A). Plates were then equilibrated at room temperature for 30 minutes before detection of luminescence on a Synergy Neo2 plate reader (Biotek). The effect of each compound dilution on BRAF and CRAF kinase activity was expressed as % inhibition and calculated as follows. […]", "note": "For at least one compound, name, drawing or mass did not settle the structure."}
{"molecule": "O=S1(=O)CCN(c2cccc3c2ncn3-c2ccc3ncnc(Nc4c(F)ccc(NS(=O)(=O)c5cccc(Cl)c5Cl)c4F)c3n2)CC1", "note": "[Example 628]", "values": [{"measurement": "Kinase IC50 (nM), BRAF biochemical kinase assay", "value": "++"}]}
